# From article PMC12819664
# The chains behind the UniProt entries cited, without tags or fusion partners. Residues count along the entry.
# UniProt O43895, residues 22-649: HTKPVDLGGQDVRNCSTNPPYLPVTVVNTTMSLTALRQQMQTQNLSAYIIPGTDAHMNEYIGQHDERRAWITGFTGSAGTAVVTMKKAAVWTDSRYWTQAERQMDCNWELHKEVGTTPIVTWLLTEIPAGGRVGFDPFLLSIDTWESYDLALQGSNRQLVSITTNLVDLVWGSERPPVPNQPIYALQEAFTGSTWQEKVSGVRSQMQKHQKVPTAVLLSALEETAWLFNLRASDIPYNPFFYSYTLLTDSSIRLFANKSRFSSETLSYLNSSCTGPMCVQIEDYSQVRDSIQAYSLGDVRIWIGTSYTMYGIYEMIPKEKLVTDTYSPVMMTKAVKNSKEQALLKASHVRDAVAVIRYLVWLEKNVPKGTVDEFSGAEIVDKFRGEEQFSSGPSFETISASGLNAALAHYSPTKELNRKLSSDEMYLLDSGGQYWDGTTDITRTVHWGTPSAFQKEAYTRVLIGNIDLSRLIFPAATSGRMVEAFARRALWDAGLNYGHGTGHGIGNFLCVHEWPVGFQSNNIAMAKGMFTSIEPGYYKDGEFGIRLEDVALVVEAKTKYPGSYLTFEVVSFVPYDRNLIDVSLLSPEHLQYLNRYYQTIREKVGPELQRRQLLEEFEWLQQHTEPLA
# No constants are given. Whether binding was seen depends on the method and setting. In cells and extracts the contact can be indirect. Some entries that bind do so weakly or less than the wild type. For some assays here: Sequences can lack the tags named with a protein.
# T1: SLC25A6 (UniProt P12236)
# T1 sequence: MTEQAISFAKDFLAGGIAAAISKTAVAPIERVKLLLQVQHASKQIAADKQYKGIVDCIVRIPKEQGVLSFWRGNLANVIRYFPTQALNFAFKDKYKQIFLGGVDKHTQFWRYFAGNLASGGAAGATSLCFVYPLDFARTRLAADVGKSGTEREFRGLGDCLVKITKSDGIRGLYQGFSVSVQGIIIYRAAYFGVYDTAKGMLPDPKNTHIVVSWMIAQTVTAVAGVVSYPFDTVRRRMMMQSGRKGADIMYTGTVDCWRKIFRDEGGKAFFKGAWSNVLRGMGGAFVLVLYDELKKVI
# How the values were obtained:
# [1] = target: HA-tagged X-prolyl aminopeptidase 2 (XPNPEP2) (UniProt O43895); experiment: co-IP; HEK293T lysed in IP lysis buffer with PMSF, precleared with protein A/G plus agarose beads and IgG, primary antibodies overnight, beads overnight at 4 °C, Western blot
# [2] = target: T1, SLC25A6; experiment: as above
Binder,binding [1],binding [2]
"SLC25A6-FLAG (protein, UniProt P12236 1-298) MTEQAISFAKDFLAGGIAAAISKTAVAPIERVKLLLQVQHASKQIAADKQYKGIVDCIVRIPKEQGVLSFWRGNLANVIRYFPTQALNFAFKDKYKQIFLGGVDKHTQFWRYFAGNLASGGAAGATSLCFVYPLDFARTRLAADVGKSGTEREFRGLGDCLVKITKSDGIRGLYQGFSVSVQGIIIYRAAYFGVYDTAKGMLPDPKNTHIVVSWMIAQTVTAVAGVVSYPFDTVRRRMMMQSGRKGADIMYTGTVDCWRKIFRDEGGKAFFKGAWSNVLRGMGGAFVLVLYDELKKVI",binds,–
"Siah E3 ubiquitin protein ligase 1 (SIAH1) (protein, UniProt Q8IUQ4 1-282) MSRQTATALPTGTSKCPPSQRVPALTGTTASNNDLASLFECPVCFDYVLPPILQCQSGHLVCSNCRPKLTCCPTCRGPLGSIRNLAMEKVANSVLFPCKYASSGCEITLPHTEKADHEELCEFRPYSCPCPGASCKWQGSLDAVMPHLMHQHKSITTLQGEDIVFLATDINLPGAVDWVMMQSCFGFHFMLVLEKQEKYDGHQQFFAIVQLIGTRKQAENFAYRLELNGHRRRLTWEATPRSIHEGIATAIMNSDCLVFDTSIAQLFAENGNLGINVTISMC",–,binds
